# Experimental data reported in the supplement of paper PMC4604168 (melanoma cell lines).
# Some of the results follow. Repeats are few or missing, and single values can be far off.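 Imaging used 1,536-well plates; nuclei positive for cleaved PARP by antibody were divided by total DNA-stained nuclei to yield the apoptosis fraction. Doses for screening kept most cells viable, and cell lines differ markedly in resting and induced cleaved-PARP levels.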
# How the values were obtained:
# Assay in all cases: cleaved PARP positive nuclei fraction relative to DMSO control; melanoma cells; higher = more apoptosis
# Details in all cases: library dose: low library concentration; 72 h
# 501Mel = test system: 501Mel
# A101D = test system: A101D
# A2058 = test system: A2058
# C32 = test system: C32
# CBRC008 = test system: CBRC008 (line from a melanoma biopsy)
# CBRC014 = test system: CBRC014 (line from a melanoma biopsy)
# CBRC016 = test system: CBRC016 (line from a melanoma biopsy)
# CBRC017 = test system: CBRC017 (line from a melanoma biopsy)
# COLO792 = test system: COLO792
# COLO800 = test system: COLO800
# COLO829 = test system: COLO829
# G361 = test system: G361
# IPC-298 = test system: IPC-298
# IST-MEL1 = test system: IST-MEL1
# LB2518-MEL = test system: LB2518-MEL
# LOXIMVI = test system: LOXIMVI
SMILES,cleaved PARP positive nuclei fraction (501Mel),cleaved PARP positive nuclei fraction (A101D),cleaved PARP positive nuclei fraction (A2058),cleaved PARP positive nuclei fraction (C32),cleaved PARP positive nuclei fraction (CBRC008),cleaved PARP positive nuclei fraction (CBRC014),cleaved PARP positive nuclei fraction (CBRC016),cleaved PARP positive nuclei fraction (CBRC017),cleaved PARP positive nuclei fraction (COLO792),cleaved PARP positive nuclei fraction (COLO800),cleaved PARP positive nuclei fraction (COLO829),cleaved PARP positive nuclei fraction (G361),cleaved PARP positive nuclei fraction (IPC-298),cleaved PARP positive nuclei fraction (IST-MEL1),cleaved PARP positive nuclei fraction (LB2518-MEL),cleaved PARP positive nuclei fraction (LOXIMVI)
"CCCCCCCCCCCCCCCCCCOP(=O)([O-])OC1CC[N+](C)(C)CC1 [Perifosine] + CC(C)CCN1c2nc(Nc3cc(F)c(O)c(F)c3)ncc2N(C)C(=O)C1C [BID1870] (first compound 0.4 µM, partner dose 0.2 µM)",57.2%,27.5%,33.8%,49.8%,178%,93.8%,44%,326%,35%,85.6%,186%,200%,65.5%,97.2%,92.4%,47.5%
"CC[C@]1(O)C[C@H]2CN(CCc3c([nH]c4ccccc34)[C@@](C(=O)OC)(c3cc4c(cc3OC)N(C=O)[C@H]3[C@@](O)(C(=O)OC)[C@H](OC(C)=O)[C@]5(CC)C=CCN6CC[C@]43[C@@H]65)C2)C1 [vincristine] + c1cc(-c2cnn3cc(-c4ccc(OCCN5CCCCC5)cc4)cnc23)ccn1 [Dorsomorphin] (first compound 0.0001 µM, partner dose 0.4 µM)",88.3%,80.4%,1570%,166%,139%,105%,81.5%,126%,109%,101%,50.2%,124%,62.5%,168%,160%,12.9%
"O=C(Nc1cc(C(F)(F)F)cc(C(F)(F)F)c1)c1cc(Cl)ccc1O + O=c1cc(-c2cccc3c2Sc2ccccc2S3)oc(N2CCOCC2)c1 [KU55933] (first compound 0.016 µM, partner dose 1 µM)",122%,17.8%,106%,57.9%,172%,97.5%,76.6%,186%,118%,79.9%,69.8%,151%,134%,43.2%,48%,39.2%
"CCCCCCCCCCCCCCCCCCOP(=O)([O-])OC1CC[N+](C)(C)CC1 [Perifosine] + O=C(Nc1ccccc1)c1cc([N+](=O)[O-])ccc1Cl [GW9662] (first compound 0.4 µM, partner dose 2 µM)",70.2%,31.7%,323%,66%,75.5%,891%,93%,87.7%,82.3%,128%,121%,116%,77.7%,58.3%,70.9%,85%
"COc1cc([C@@H]2c3cc4c(cc3[C@@H](O[C@@H]3O[C@@H]5CO[C@@H](C)O[C@H]5[C@H](O)[C@H]3O)[C@H]3COC(=O)[C@H]23)OCO4)cc(OC)c1O [etoposide] + COc1ccc(-c2ccc3c(N4CCOCC4)nc(N4C[C@@H](C)O[C@@H](C)C4)nc3n2)cc1CO [KU0063794] (first compound 0.02 µM, partner dose 0.02 µM)",65%,28%,156%,59%,408%,96.3%,69.2%,98.4%,129%,86.5%,194%,69.8%,92.1%,191%,152%,87.3%
"CC[C@]1(O)C[C@H]2CN(CCc3c([nH]c4ccccc34)[C@@](C(=O)OC)(c3cc4c(cc3OC)N(C=O)[C@H]3[C@@](O)(C(=O)OC)[C@H](OC(C)=O)[C@]5(CC)C=CCN6CC[C@]43[C@@H]65)C2)C1 [vincristine] + O=C(Nc1ccccc1)c1cc([N+](=O)[O-])ccc1Cl [GW9662] (first compound 0.0001 µM, partner dose 2 µM)",89.2%,40.2%,935%,114%,370%,117%,141%,116%,49.6%,80.2%,75.5%,58.3%,62.1%,99%,83%,63.8%
"Cc1cn(-c2cc(NC(=O)c3ccc(C)c(Nc4nccc(-c5cccnc5)n4)c3)cc(C(F)(F)F)c2)cn1 [nilotinib] + O=C1NC(=O)/C(=C/c2ccc(-c3ccc(F)cc3O)o2)S1 [AS252424] (first compound 0.2 µM, partner dose 1 µM)",106%,20.3%,129%,127%,355%,80.7%,123%,121%,117%,48.9%,130%,16.8%,66%,91.5%,65.2%,144%
"COc1cc([C@@H]2c3cc4c(cc3[C@@H](O[C@@H]3O[C@@H]5CO[C@@H](C)O[C@H]5[C@H](O)[C@H]3O)[C@H]3COC(=O)[C@H]23)OCO4)cc(OC)c1O [etoposide] + c1cc(-c2cnn3cc(-c4ccc(OCCN5CCCCC5)cc4)cnc23)ccn1 [Dorsomorphin] (first compound 0.02 µM, partner dose 0.4 µM)",89.5%,37.6%,76.2%,180%,50.7%,112%,82.3%,105%,154%,106%,110%,121%,104%,68.7%,69.7%,134%
"O=c1[nH]nc(Sc2ncc([N+](=O)[O-])s2)n1-c1ccc2c(c1)OCCO2 + Oc1nc(-c2ccc(C(F)(F)F)cc2)nc2c1CSCC2 [XAV939] (first compound 0.2 µM, partner dose 2 µM)",120%,29.1%,240%,171%,28.5%,100%,67.8%,116%,55.8%,65.1%,52%,87.8%,31.4%,119%,69.5%,121%
"COc1cc([C@@H]2c3cc4c(cc3[C@@H](O[C@@H]3O[C@@H]5CO[C@@H](C)O[C@H]5[C@H](O)[C@H]3O)[C@H]3COC(=O)[C@H]23)OCO4)cc(OC)c1O [etoposide] + Cn1cc(/C=C2\C(=O)Nc3cccnc32)c2ccccc21 [GW441756] (first compound 0.02 µM, partner dose 0.4 µM)",61.6%,28.7%,74.7%,95%,97.3%,112%,108%,270%,161%,149%,39.9%,172%,122%,74%,211%,165%
"CCCCCCCCCCCCCCCCCCOP(=O)([O-])OC1CC[N+](C)(C)CC1 [Perifosine] + O=c1cc(-c2cccc3c2Sc2ccccc2S3)oc(N2CCOCC2)c1 [KU55933] (first compound 0.4 µM, partner dose 1 µM)",116%,24.8%,361%,148%,78%,71.2%,45%,121%,97%,66.4%,151%,135%,198%,82.8%,63.8%,69.3%
"Cc1cn(-c2cc(NC(=O)c3ccc(C)c(Nc4nccc(-c5cccnc5)n4)c3)cc(C(F)(F)F)c2)cn1 [nilotinib] + COc1cc2ncnc(Nc3ccc(Oc4ccccc4)cc3)c2cc1OC [SrcI1] (first compound 0.2 µM, partner dose 2 µM)",139%,38.7%,142%,82.3%,230%,78.6%,47.3%,114%,130%,78.8%,57%,175%,37.8%,143%,48.4%,80.4%
"O=C(Nc1cc(C(F)(F)F)cc(C(F)(F)F)c1)c1cc(Cl)ccc1O + COc1ccc(-c2ccc3c(N4CCOCC4)nc(N4C[C@@H](C)O[C@@H](C)C4)nc3n2)cc1CO [KU0063794] (first compound 0.016 µM, partner dose 0.02 µM)",70.6%,8%,68.8%,28%,57.3%,98.5%,52.7%,121%,195%,94.6%,33%,96%,88%,44.7%,68.2%,47.1%
"O=C(/C=C/c1cccnc1)NCCCCC1CCN(C(=O)c2ccccc2)CC1 + COc1ccc2c(c1)CCC1C2CCC2(C)C(NCCCCCCN3C(=O)C=CC3=O)CCC12 [U73122] (first compound 0.01 µM, partner dose 0.4 µM)",149%,10.9%,76.4%,99.5%,2670%,149%,659%,360%,659%,259%,457%,3790%,376%,101%,133%,23.6%
"CC[C@]1(O)C[C@H]2CN(CCc3c([nH]c4ccccc34)[C@@](C(=O)OC)(c3cc4c(cc3OC)N(C=O)[C@H]3[C@@](O)(C(=O)OC)[C@H](OC(C)=O)[C@]5(CC)C=CCN6CC[C@]43[C@@H]65)C2)C1 [vincristine] + O=C(O)C(=O)Nc1sc2c(c1C(=O)O)CCNC2 [TCS401] (first compound 0.0001 µM, partner dose 1.66667 µM)",83.6%,57.8%,415%,131%,149%,114%,187%,93.5%,78%,135%,81.1%,177%,158%,69.7%,45.8%,90.6%
"CCCCCCCCCCCCCCCCCCOP(=O)([O-])OC1CC[N+](C)(C)CC1 [Perifosine] + O=C1NC(=O)/C(=C/c2ccc(-c3ccc(F)cc3O)o2)S1 [AS252424] (first compound 0.4 µM, partner dose 1 µM)",66.9%,23%,107%,73.1%,152%,97.9%,53.5%,99.6%,87.9%,69.7%,53.6%,108%,65.2%,124%,70.4%,52.4%
"O=C(/C=C/c1cccnc1)NCCCCC1CCN(C(=O)c2ccccc2)CC1 + CCCCCCCCCCCC1=C(O)C(=O)C=C(O)C1=O [Embelin] (first compound 0.01 µM, partner dose 1.2 µM)",63.5%,18.2%,288%,152%,209%,106%,24.5%,144%,388%,321%,191%,1090%,261%,93.8%,331%,178%
"Cc1cc(Nc2cc(N3CCN(C)CC3)nc(Sc3ccc(NC(=O)C4CC4)cc3)n2)n[nH]1 [Tozasertib] + CCN(CC)CCCCNc1ncc2cc(-c3cc(OC)cc(OC)c3)c(NC(=O)NC(C)(C)C)nc2n1 [PD173074] (first compound 0.006 µM, partner dose 0.1 µM)",75.2%,20.7%,58.5%,51%,161%,94.4%,33.7%,83.6%,28.5%,191%,43.1%,79.2%,48.9%,113%,316%,182%

# No new results follow: entries from further up.
SMILES,cleaved PARP positive nuclei fraction (501Mel),cleaved PARP positive nuclei fraction (A101D),cleaved PARP positive nuclei fraction (A2058),cleaved PARP positive nuclei fraction (C32),cleaved PARP positive nuclei fraction (CBRC008),cleaved PARP positive nuclei fraction (CBRC014),cleaved PARP positive nuclei fraction (CBRC016),cleaved PARP positive nuclei fraction (CBRC017),cleaved PARP positive nuclei fraction (COLO792),cleaved PARP positive nuclei fraction (COLO800),cleaved PARP positive nuclei fraction (COLO829),cleaved PARP positive nuclei fraction (G361),cleaved PARP positive nuclei fraction (IPC-298),cleaved PARP positive nuclei fraction (IST-MEL1),cleaved PARP positive nuclei fraction (LB2518-MEL),cleaved PARP positive nuclei fraction (LOXIMVI)
"COc1cc([C@@H]2c3cc4c(cc3[C@@H](O[C@@H]3O[C@@H]5CO[C@@H](C)O[C@H]5[C@H](O)[C@H]3O)[C@H]3COC(=O)[C@H]23)OCO4)cc(OC)c1O [etoposide] + Cn1cc(/C=C2\C(=O)Nc3cccnc32)c2ccccc21 [GW441756] (first compound 0.02 µM, partner dose 0.4 µM)",61.6%,28.7%,74.7%,95%,97.3%,112%,108%,270%,161%,149%,39.9%,172%,122%,74%,211%,165%
"CCCCCCCCCCCCCCCCCCOP(=O)([O-])OC1CC[N+](C)(C)CC1 [Perifosine] + O=c1cc(-c2cccc3c2Sc2ccccc2S3)oc(N2CCOCC2)c1 [KU55933] (first compound 0.4 µM, partner dose 1 µM)",116%,24.8%,361%,148%,78%,71.2%,45%,121%,97%,66.4%,151%,135%,198%,82.8%,63.8%,69.3%
